Results as given in paper PMC10117376.
Results are given in words; binding and its absence hold for the method and conditions named. Binding seen in cells or lysates may run through a third protein. Here binding means that the protein was enriched with, or labelled near, the bait; the list need not be complete. No binding means not detected with the bait. Where a sequence is shown, tags or fusion partners need not be part of it.

T1: 2×FLAG/V5-TBR1 (human), Q16650
T1 chain: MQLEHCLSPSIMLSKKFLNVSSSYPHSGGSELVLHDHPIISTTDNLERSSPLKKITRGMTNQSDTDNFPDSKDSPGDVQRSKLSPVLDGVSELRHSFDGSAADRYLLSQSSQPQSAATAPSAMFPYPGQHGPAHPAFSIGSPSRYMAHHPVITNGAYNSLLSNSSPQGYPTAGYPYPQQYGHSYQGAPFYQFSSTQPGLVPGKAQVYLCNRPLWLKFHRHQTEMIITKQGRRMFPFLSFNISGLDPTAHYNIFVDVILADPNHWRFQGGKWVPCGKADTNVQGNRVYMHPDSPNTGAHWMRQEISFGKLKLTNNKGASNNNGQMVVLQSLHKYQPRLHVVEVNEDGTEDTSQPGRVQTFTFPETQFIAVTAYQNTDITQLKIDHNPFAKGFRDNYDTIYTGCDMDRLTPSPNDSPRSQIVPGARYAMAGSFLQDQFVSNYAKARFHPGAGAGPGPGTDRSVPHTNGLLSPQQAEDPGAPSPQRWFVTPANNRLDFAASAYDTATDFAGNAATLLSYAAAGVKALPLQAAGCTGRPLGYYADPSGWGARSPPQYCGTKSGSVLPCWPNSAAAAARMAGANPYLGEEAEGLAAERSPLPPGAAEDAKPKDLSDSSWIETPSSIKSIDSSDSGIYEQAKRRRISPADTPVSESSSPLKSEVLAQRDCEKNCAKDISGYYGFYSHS

B1: CASK, O14936 1-926 (protein)
chain: MADDDVLFEDVYELCEVIGKGPFSVVRRCINRETGQQFAVKIVDVAKFTSSPGLSTEDLKREASICHMLKHPHIVELLETYSSDGMLYMVFEFMDGADLCFEIVKRADAGFVYSEAVASHYMRQILEALRYCHDNNIIHRDVKPHCVLLASKENSAPVKLGGFGVAIQLGESGLVAGGRVGTPHFMAPEVVKREPYGKPVDVWGCGVILFILLSGCLPFYGTKERLFEGIIKGKYKMNPRQWSHISESAKDLVRRMLMLDPAERITVYEALNHPWLKERDRYAYKIHLPETVEQLRKFNARRKLKGAVLAAVSSHKFNSFYGDPPEELPDFSEDPTSSGLLAAERAVSQVLDSLEEIHALTDCSEKDLDFLHSVFQDQHLHTLLDLYDKINTKSSPQIRNPPSDAVQRAKEVLEEISCYPENNDAKELKRILTQPHFMALLQTHDVVAHEVYSDEALRVTPPPTSPYLNGDSPESANGDMDMENVTRVRLVQFQKNTDEPMGITLKMNELNHCIVARIMHGGMIHRQGTLHVGDEIREINGISVANQTVEQLQKMLREMRGSITFKIVPSYRTQSSSCERDSPSTSRQSPANGHSSTNNSVSDLPSTTQPKGRQIYVRAQFEYDPAKDDLIPCKEAGIRFRVGDIIQIISKDDHNWWQGKLENSKNGTAGLIPSPELQEWRVACIAMEKTKQEQQASCTWFGKKKKQYKDKYLAKHNAVFDQLDLVTYEEVVKLPAFKRKTLVLLGAHGVGRRHIKNTLITKHPDRFAYPIPHTTRPPKKDEENGKNYYFVSHDQMMQDISNNEYLEYGSHEDAMYGTKLETIRKIHEQGLIAILDVEPQALKVLRTAEFAPFVVFIAAPTITPGLNEDESLQRLQKESDILQRTYAHYFDLTIINNEIDETIRHLEEAVELVCTAPQWVPVSWVY
B2: FOXP1, Q9H334 1-677 (protein)
chain: MMQESGTETKSNGSAIQNGSGGSNHLLECGGLREGRSNGETPAVDIGAADLAHAQQQQQQALQVARQLLLQQQQQQQVSGLKSPKRNDKQPALQVPVSVAMMTPQVITPQQMQQILQQQVLSPQQLQVLLQQQQALMLQQQQLQEFYKKQQEQLQLQLLQQQHAGKQPKEQQQVATQQLAFQQQLLQMQQLQQQHLLSLQRQGLLTIQPGQPALPLQPLAQGMIPTELQQLWKEVTSAHTAEETTGNNHSSLDLTTTCVSSSAPSKTSLIMNPHASTNGQLSVHTPKRESLSHEEHPHSHPLYGHGVCKWPGCEAVCEDFQSFLKHLNSEHALDDRSTAQCRVQMQVVQQLELQLAKDKERLQAMMTHLHVKSTEPKAAPQPLNLVSSVTLSKSASEASPQSLPHTPTTPTAPLTPVTQGPSVITTTSMHTVGPIRRRYSDKYNVPISSADIAQNQEFYKNAEVRPPFTYASLIRQAILESPEKQLTLNEIYNWFTRMFAYFRRNAATWKNAVRHNLSLHKCFVRVENVKGAVWTVDEVEFQKRRPQKISGNPSLIKNMQSSHAYCTPLNAALQASMAENSIPLYTTASMGNPTLGNLASAIREELNGAMEHTNSNESDSSPGRSPMQAVHPVHVKEEPLDPEEAEGPLSLVTTANHSPDFDHDRDYEDEPVNEDME
B3: FOXP2, O15409 1-715 (protein)
chain: MMQESATETISNSSMNQNGMSTLSSQLDAGSRDGRSSGDTSSEVSTVELLHLQQQQALQAARQLLLQQQTSGLKSPKSSDKQRPLQVPVSVAMMTPQVITPQQMQQILQQQVLSPQQLQALLQQQQAVMLQQQQLQEFYKKQQEQLHLQLLQQQQQQQQQQQQQQQQQQQQQQQQQQQQQQQQQQQQQQQQHPGKQAKEQQQQQQQQQQLAAQQLVFQQQLLQMQQLQQQQHLLSLQRQGLISIPPGQAALPVQSLPQAGLSPAEIQQLWKEVTGVHSMEDNGIKHGGLDLTTNNSSSTTSSNTSKASPPITHHSIVNGQSSVLSARRDSSSHEETGASHTLYGHGVCKWPGCESICEDFGQFLKHLNNEHALDDRSTAQCRVQMQVVQQLEIQLSKERERLQAMMTHLHMRPSEPKPSPKPLNLVSSVTMSKNMLETSPQSLPQTPTTPTAPVTPITQGPSVITPASVPNVGAIRRRHSDKYNIPMSSEIAPNYEFYKNADVRPPFTYATLIRQAIMESSDRQLTLNEIYSWFTRTFAYFRRNAATWKNAVRHNLSLHKCFVRVENVKGAVWTVDEVEYQKRRSQKITGSPTLVKNIPTSLGYGAALNASLQAALAESSLPLLSNPGLINNASSGLLQAVHEDLNGSLDHIDSNGNSSPGCSPQPHIHSIHVKEEPVIAEDEDCPMSLVTTANHSPELEDDREIEEEPLSEDLE
B4: FOXP4, Q8IVH2 1-680 (protein)
chain: MMVESASETIRSAPSGQNGVGSLSGQADGSSGGATGTTASGTGREVTTGADSNGEMSPAELLHFQQQQALQVARQFLLQQASGLSSPGNNDSKQSASAVQVPVSVAMMSPQMLTPQQMQQILSPPQLQALLQQQQALMLQQLQEYYKKQQEQLHLQLLTQQQAGKPQPKEALGNKQLAFQQQLLQMQQLQQQHLLNLQRQGLVSLQPNQASGPLQTLPQAAVCPTDLPQLWKGEGAPGQPAEDSVKQEGLDLTGTAATATSFAAPPKVSPPLSHHTLPNGQPTVLTSRRDSSSHEETPGSHPLYGHGECKWPGCETLCEDLGQFIKHLNTEHALDDRSTAQCRVQMQVVQQLEIQLAKESERLQAMMAHLHMRPSEPKPFSQPLNPVPGSSSFSKVTVSAADSFPDGLVHPPTSAAAPVTPLRPPGLGSASLHGGGPARRRSSDKFCSPISSELAQNHEFYKNADVRPPFTYASLIRQAILETPDRQLTLNEIYNWFTRMFAYFRRNTATWKNAVRHNLSLHKCFVRVENVKGAVWTVDEREYQKRRPPKMTGSPTLVKNMISGLSYGALNASYQAALAESSFPLLNSPGMLNPGSASSLLPLSHDDVGAPVEPLPSNGSSSPPRLSPPQYSHQVQVKEEPAEAEEDRQPGPPLGAPNPSASGPPEDRDLEEELPGEELS

Target: T1, 2×FLAG/V5-TBR1 (human), Q16650
Test: affinity purification with mass spectrometry; nuclear extract of HEK293 cells stably expressing 2xFLAG/V5-TBR1 on anti-FLAG M2 agarose beads, 3 h at 4°C, buffer C-100 (20 mM HEPES pH 7.6, 20% glycerol, 100 mM KCl, 1.5 mM MgCl2, 0.2 mM EDTA) with benzonase and ethidium bromide; eluted with FLAG-tripeptide; two independent purifications (AP1, AP2); untransfected cells as control
Conditions: remark: other sources report otherwise

Q: For B1, which binding is on record?
A: The binding was “binds”.

Q: With B2 as the binder, how does the binding read?
A: The binding was “no binding”.

Q: With B3 as the binder, how does the binding read?
A: The binding was “no binding”.

Q: With B4 as the binder, how does the binding read?
A: The binding was “no binding”.
